The list shows a part of the results. Further columns of the screen follow, without active or inactive calls. Compounds called inactive in the main read-out are mostly missing here. Potencies come from curve fits of mixed quality, noted in brackets.
Experiment: qHTS Assay for Modulators of Lamin A Splicing
Settings: HeLa LMNA splicing GFP/RFP minigene ratio, 48 h
Procedure, shortened: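 S3 HeLa cells stably expressing lamin A-EGFP splicing minigene plus DsRed2, 600 cells/well, 48 h compound exposure at 37C. Laser-scanning cytometry; analysed as GFP (500-530 nm)/RFP (575-640 nm) total intensity ratio; 0.5% DMSO vehicle.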

[1] = measured here: RFP viability control channel
[2] = measured here: GFP splicing reporter channel

Question: For `c1ccc(Nc2nc(N3CCOCC3)nc(N3CCOCC3)n2)cc1`, which AC50 [1] is on record?
Answer: The AC50 was 15.8 µM [rising, partial curve].

Question: Which AC50 [2] does the source give for `COc1cc(OC)c(C(=O)N2CCCC2)cc1OC` here?
Answer: The AC50 was 11.2 µM [falling, partial curve, poor fit].

Question: Which AC50 [2] does the source give for `COc1ccc(C2N=C(c3ccccc3)C(C)(C)N2O)cc1OC` (centres undefined) here?
Answer: Its AC50 is 3.98 µM [rising, full curve, poor fit].

Question: Which AC50 [2] does the source give for `O=c1c(Cl)nc2cc(Cl)ccc2n1CCNc1ncc(C(F)(F)F)cc1Cl` here?
Answer: Its AC50 is 11.2 µM [falling, partial curve].

Question: And the AC50 [1]?
Answer: Its AC50 is 7.08 µM [falling, partial curve].

Question: Which AC50 [2] does the source give for `CCC(OC(=O)C1=Cc2ccccc2OC1)C(=O)NCc1ccco1` (centres undefined) here?
Answer: The AC50 was 8.91 µM [falling, single point].

Question: With `CCn1c(C)c(/C=N/Nc2nc3ccccc3s2)c2ccccc21` as the molecule, how does the AC50 [2] read?
Answer: Its AC50 is 0.01 µM [falling, full curve, poor fit].

Question: What about the AC50 [1] of the same molecule?
Answer: The AC50 was 0.00891 µM [falling, full curve, poor fit].

Question: With `COc1ccc(C2CC(=O)c3cnn(-c4nc(C)cc(C)n4)c3C2)cc1` (centres undefined) as the molecule, how does the AC50 [2] read?
Answer: Its AC50 is 25.1 µM [rising, single point].

Question: For `CC(C)c1ccc(NC(=O)CSC2=Nc3ccccc3C3=NC(CCC(=O)NCc4ccc(F)cc4)C(=O)N23)cc1` (centres undefined), which AC50 [2] is on record?
Answer: Its AC50 is 0.0631 µM [falling, full curve, poor fit].

Question: Which AC50 [1] does the source give for `O=C(/C=C/c1cccs1)Nc1ccc(Br)cn1` here?
Answer: Its AC50 is 0.112 µM [rising, full curve].

Question: With `c1ccc(Cc2nc3ccccc3n2Cc2ccccc2)cc1` as the molecule, how does the AC50 [1] read?
Answer: Its AC50 is 31.6 µM [rising, single point].

Question: For `CN1C(=O)c2ccccc2C(C(=O)NCC2CCCO2)C1c1c[nH]c2ccccc12` (centres undefined), which AC50 [1] is on record?
Answer: Its AC50 is 4.47 µM [rising, full curve, poor fit].

Question: Which AC50 [1] does the source give for `Cc1ccc(C2=NOC(=O)/C2=C\C=C\c2ccccc2)cc1` here?
Answer: The AC50 was 35.5 µM [falling, single point].

Question: For `CNc1nc(Nc2ccc(Br)cc2)nc(N)c1[N+](=O)[O-]`, which AC50 [2] is on record?
Answer: Its AC50 is 0.708 µM [falling, full curve, poor fit].

Question: And the AC50 [1]?
Answer: Its AC50 is 1.58 µM [falling, full curve].

Question: For `CN(C)c1cc[n+](Cc2c(Cl)cccc2Cl)cc1`, which AC50 [1] is on record?
Answer: The AC50 was 12.6 µM [rising, single point].

Question: With `O=C(Cn1nnc(-c2ccc(F)cc2)n1)Nc1ccc2c(c1)OCCO2` as the molecule, how does the AC50 [1] read?
Answer: Its AC50 is 14.1 µM [rising, single point].

Question: With `COc1cccc(C(NC(=O)c2ccccc2F)NC(=O)c2ccccc2F)c1` as the molecule, how does the AC50 [2] read?
Answer: The AC50 was 0.0251 µM [falling, full curve, poor fit].

Question: Which results are given for `Fc1cccc(/C=N/Nc2ncnc3nc[nH]c23)c1`?
Answer: AC50 [2]: 5.62 µM [falling, partial curve, poor fit]; AC50 [1]: 7.94 µM [falling, partial curve]

Question: For `COc1ccc(C(=O)NNC(=O)CN2CCC(n3nnc4cc(C)ccc43)CC2)cc1`, which AC50 [1] is on record?
Answer: Its AC50 is 17.8 µM [rising, partial curve].

Question: What does the source list for `CCCCOc1ccc(/C=C/C(=O)OCC(=O)c2c(N)n(C)c(=O)n(C)c2=O)cc1OCC`?
Answer: AC50 [2]: 17.8 µM [falling, partial curve, poor fit]; AC50 [1]: 22.4 µM [falling, partial curve, poor fit]

Question: For `Cc1cc(F)ccc1NC(=O)C(C(C)C)N1Cc2ccccc2C1=O` (centres undefined), which AC50 [1] is on record?
Answer: Its AC50 is 0.891 µM [falling, full curve, poor fit].

Question: Which AC50 [1] does the source give for `CC1(C)CC(=O)C2=C(C1)OC(N)=C(C#N)C2c1cn(-c2ccccc2)nc1-c1ccccc1` (centres undefined) here?
Answer: The AC50 was 17.8 µM [rising, partial curve].

Question: With `Cc1cc(Nc2ccc(N3CCC(C)CC3)cc2)n2ncnc2n1` as the molecule, how does the AC50 [1] read?
Answer: Its AC50 is 14.1 µM [rising, single point].

Question: For `CC(C(=O)Nc1ccc(S(=O)(=O)N2CCOCC2)cc1)N1C(=O)C2CC=CCC2C1=O` (centres undefined), which AC50 [1] is on record?
Answer: The AC50 was 0.0282 µM [rising, full curve, poor fit].

Question: With `Brc1ccc(/C=N/N2CCN(C3c4ccccc4-c4ccccc43)CC2)s1` as the molecule, how does the AC50 [2] read?
Answer: The AC50 was 22.4 µM [falling, single point].

Question: What about the AC50 [1] of the same molecule?
Answer: The AC50 was 20 µM [falling, single point].

Question: For `CC(=O)N(C[C@@H](C)C(=O)O)c1c(I)cc(I)c(N)c1I`, which AC50 [2] is on record?
Answer: The AC50 was 2.24 µM [falling, single point].

Question: And the AC50 [1]?
Answer: The AC50 was 2.51 µM [falling, single point].

Question: With `Cc1[nH]c2ccc(F)cc2c1CCN(Cc1ccncc1)C(=S)Nc1ccccc1` as the molecule, how does the AC50 [2] read?
Answer: Its AC50 is 0.0224 µM [rising, full curve, poor fit].

Question: With `O=[N+]([O-])c1ccc(O)c(/C=N/Nc2ccccn2)c1` as the molecule, how does the AC50 [1] read?
Answer: The AC50 was 1.41 µM [rising, partial curve].

Question: Which results are given for `O=C(Nc1cccc(Br)c1)c1ccn[nH]1`?
Answer: AC50 [2]: 11.2 µM [falling, single point]; AC50 [1]: 11.2 µM [falling, partial curve, poor fit]

Question: With `O=C(Nc1ccccc1)N1CCCN(Cc2c(F)cccc2Cl)CC1` as the molecule, how does the AC50 [1] read?
Answer: Its AC50 is 39.8 µM [falling, partial curve, poor fit].

Question: Which AC50 [1] does the source give for `O=C(NCCc1ccc2c(c1)OCCO2)c1cc(F)cc(F)c1` here?
Answer: The AC50 was 14.1 µM [rising, partial curve].

Question: With `CC(=O)c1ccccc1NS(=O)(=O)c1c(C)nn(-c2ccccc2)c1C` as the molecule, how does the AC50 [2] read?
Answer: Its AC50 is 8.91 µM [rising, partial curve, poor fit].

Question: What about the AC50 [1] of the same molecule?
Answer: The AC50 was 15.8 µM [rising, partial curve].

Question: For `c1ccc(CSc2nnc(C3CCNCC3)o2)cc1`, which AC50 [2] is on record?
Answer: The AC50 was 0.00794 µM [rising, full curve, poor fit].

Question: With `Cc1cc2c(cc(C(=O)OC(C(=O)NCC3CCCO3)C(C)C)n2C)o1` (centres undefined) as the molecule, how does the AC50 [1] read?
Answer: The AC50 was 0.00316 µM [falling, full curve, poor fit].

Question: For `CCN1CCCC1CN(Cc1cc2ccc(C)cc2[nH]c1=O)C(=S)Nc1cccc(OC)c1` (centres undefined), which AC50 [1] is on record?
Answer: The AC50 was 11.2 µM [rising, single point].

Question: What does the source list for `CCOc1ccc(Cc2nccc3cc(OCC)c(OCC)cc23)cc1OCC`?
Answer: AC50 [2]: 5.01 µM [falling, partial curve]; AC50 [1]: 0.002 µM [falling, full curve, poor fit]

Question: Which AC50 [2] does the source give for `CCc1c(C(=O)NCc2ccccc2Cl)[nH]c(C)c1C(C)=O` here?
Answer: The AC50 was 15.8 µM [rising, single point].

Question: Which results are given for `Cn1cc(C(=O)CCl)c2ccccc21`?
Answer: AC50 [2]: 35.5 µM [falling, single point]; AC50 [1]: 35.5 µM [falling, single point]

Question: Which AC50 [2] does the source give for `Cc1ccc2c(c1)C1CN(C)CCC1N2C(=O)c1ccc(Cl)c(S(=O)(=O)N2CCOCC2)c1` (centres undefined) here?
Answer: Its AC50 is 0.0398 µM [falling, full curve, poor fit].

Question: What about the AC50 [1] of the same molecule?
Answer: The AC50 was 0.158 µM [falling, full curve, poor fit].

Question: With `c1ccc(-c2csc3ncnc(N4CCOCC4)c23)cc1` as the molecule, how does the AC50 [1] read?
Answer: Its AC50 is 0.794 µM [rising, partial curve].

Question: With `COc1cccc(Nc2nc(N)nc(-c3oc4ccccc4c3C)n2)c1` as the molecule, how does the AC50 [2] read?
Answer: Its AC50 is 12.6 µM [falling, single point].

Question: What about the AC50 [1] of the same molecule?
Answer: The AC50 was 12.6 µM [falling, partial curve].

Question: For `CC(Oc1ccc(Cl)cc1Cl)C(=O)NCCC1=CCCCC1` (centres undefined), which AC50 [1] is on record?
Answer: The AC50 was 20 µM [rising, partial curve, poor fit].

Question: With `O=C(Cc1cccc2ccccc12)Nc1ccc2c(c1)C(=O)NC2=O` as the molecule, how does the AC50 [2] read?
Answer: The AC50 was 0.00562 µM [rising, full curve, poor fit].

Question: And the AC50 [1]?
Answer: Its AC50 is 0.0398 µM [rising, full curve].

Question: Which AC50 [1] does the source give for `CC(NC(=O)CSc1nnc(-c2cc3cc(Cl)ccc3o2)n1C)c1ccccc1` (centres undefined) here?
Answer: The AC50 was 35.5 µM [rising, single point].

Question: With `CCCCNC(=S)Nc1ccc2nc3n(c(=O)c2c1)CCCCC3` as the molecule, how does the AC50 [1] read?
Answer: The AC50 was 35.5 µM [rising, single point].

Question: With `CCOc1ccccc1C(=O)N1CCN(c2ccc(C(F)(F)F)cn2)CC1` as the molecule, how does the AC50 [1] read?
Answer: The AC50 was 11.2 µM [rising, single point].

Question: For `COc1cc(OC)c(OC)cc1CN1CCc2nc(N3CCN(c4ccccc4F)CC3)ncc2C1`, which AC50 [2] is on record?
Answer: Its AC50 is 14.1 µM [falling, partial curve].

Question: For `COc1ccc(C(=O)Nc2nc3ccccc3c(=O)[nH]2)cc1`, which AC50 [1] is on record?
Answer: The AC50 was 0.0355 µM [falling, full curve, poor fit].

Question: With `Cc1nc(N2CCN(C(=O)c3ccco3)CC2)c2oc3ccccc3c2n1` as the molecule, how does the AC50 [2] read?
Answer: The AC50 was 20 µM [rising, partial curve, poor fit].

Question: What about the AC50 [1] of the same molecule?
Answer: Its AC50 is 28.2 µM [rising, single point].

Question: With `CN(CC(=O)Nc1cccc(F)c1)CC(=O)Nc1ccccc1[N+](=O)[O-]` as the molecule, how does the AC50 [1] read?
Answer: Its AC50 is 35.5 µM [falling, single point].

Question: For `O=C(/C=C/c1ccccc1)NC(NC(=S)Nc1cccc(O)c1)C(Cl)(Cl)Cl` (centres undefined), which AC50 [1] is on record?
Answer: Its AC50 is 12.6 µM [rising, single point].

Question: For `COc1ccc(/C=C(/CC(=O)NCc2ccc(Cl)cc2)c2nc3ccccc3s2)cc1`, which AC50 [2] is on record?
Answer: Its AC50 is 10 µM [rising, partial curve, poor fit].

Question: And the AC50 [1]?
Answer: The AC50 was 14.1 µM [rising, partial curve, poor fit].

Question: With `Cc1cc(Br)ccc1OCC(=O)NNC(=O)c1cnccn1` as the molecule, how does the AC50 [2] read?
Answer: The AC50 was 17.8 µM [rising, single point].

Question: What about the AC50 [1] of the same molecule?
Answer: The AC50 was 17.8 µM [rising, single point].

Question: For `COc1ccc(C)cc1S(=O)(=O)NCC(c1ccc(N(C)C)cc1)N1CCc2ccccc21` (centres undefined), which AC50 [2] is on record?
Answer: The AC50 was 35.5 µM [falling, single point].

Question: Which AC50 [2] does the source give for `CCc1nc2ccccc2c(=O)n1NC(=O)c1c(O)c2ccccc2n(CC)c1=O` here?
Answer: The AC50 was 0.631 µM [falling, single point].

Question: Which AC50 [1] does the source give for `N=c1c(C(=O)NCc2ccc(F)cc2)cc2c(=O)n3ccccc3nc2n1Cc1ccco1` here?
Answer: Its AC50 is 11.2 µM [rising, partial curve].

Question: With `O=C(Nc1ccc(S(=O)(=O)NCc2cccnc2)cc1)c1ccccc1Cl` as the molecule, how does the AC50 [1] read?
Answer: The AC50 was 8.91 µM [rising, partial curve].

Question: For `CCN(CC)S(=O)(=O)c1cccc(NC(=O)C2SC(=Nc3ccc(C)cc3C)C(C(=O)NC(C)COC)=C2N)c1` (centres undefined), which AC50 [1] is on record?
Answer: The AC50 was 14.1 µM [rising, single point].

Source: PubChem BioAssay AID1487 (National Center for Advancing Translational Sciences (NCATS), 2009)
